Assay results as given in publication PMC10564737, “Structure-based design of a phosphotyrosine-masked covalent ligand targeting the E3 ligase SOCS2” (Nature Communications, 2023).
Where “and” joins values, the source holds several entries; their conditions need not be identical. Identical values can stand only once. This continues a long series; more values of the same kind are listed elsewhere.

The chains behind the UniProt entries cited, without tags or fusion partners. Residues count along the entry.
UniProt O14508, 32-198: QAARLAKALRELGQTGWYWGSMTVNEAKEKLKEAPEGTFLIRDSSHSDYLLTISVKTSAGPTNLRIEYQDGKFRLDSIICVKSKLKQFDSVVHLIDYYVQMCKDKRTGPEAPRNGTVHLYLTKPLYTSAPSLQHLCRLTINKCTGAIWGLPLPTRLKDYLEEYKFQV

Target: T1, SBC2 (Homo sapiens, UniProt O14508)
T1 construct: SOCS2 (amino acids 32–198); His6 (N, cleaved yes); made in house; host or cells: E. coli BL21(DE3)
Assay: Covalent fluorescence polarization (FP) probe displacement assay
Format: binding
From the text: With the specific covalent modification of Cys111 established, we decided to fully characterize MN551 as a covalent SOCS2 inhibitor. […] (Fig. 2g, h, Supplementary Fig. 9). Due to the covalent nature of the competing inhibitor, a time-dependent reduction in the fraction of protein-bound probe is observed. […] This value illustrates reasonable specificity for a covalent inhibitor, with nonetheless scope for future optimization. In addition to characterizing the kinetic covalency parameters, we have also assessed the stability of the MN551 by monitoring its reactivity (half-life >70 min) with reduced glutathione (GSH) (Supplementary Fig. 10)[35].
To monitor the SBC2-ligand binding kinetics we designed a fluorescein-labeled small-molecule probe - compound 26. The fluorescence polarization (anisotropy) of a threefold serial dilution of 50 µM SBC2 in 10 nM of the probe in 100 mM HEPES pH 7.5, 50 mM NaCl, 0.5 mM TCEP, 2% DMSO was measured to determine the KL (Supplementary Fig. 9A) (BMG Labtech PHERAstar – firmware v1.33). Protein titration and the curves were fitted using GraphPad Prism 9, using one-site fitting models to determine the probe binding constant, KL. Samples were run in triplicate in 384 well plates, using a total volume per well of 16 μL. The bound fraction of the probe is measure using the equation:1 Fb=Af−A/Af−Ab Where,
A time-dependent reduction in probe anisotropy were measured for a 2-fold serial dilution of […] compound MN551 in 10 nM probe +300 μM SBC2. To determine the initial reversible binding affinity, the initial bound fraction of the probe at time = 0, Fbo (the y-intercept in Fb v/s Time plot, Supplementary Fig. 9B) was plotted against MN551 concentration, and the obtained IC50 is then converted to Ki (Supplementary Fig. 9C)[17]. The slope from Fb versus time graph when divided by Fbo gives rate of covalency, kobs. A plot of kobs v/s MN551 concentration using Michaelis–Menten model of GraphPad Prism 9, provides the parameters kinact (maximum potential rate of inactivation) and KI (concentration of MN551 at which kobs = kinact/2) (Supplementary Fig. 9D, E).
The observed first-order rate constant, kobs is related to KI and kinact by the equation:2 kobs=kinactI/KI+I
At [I]«[KI] the above equation is converted to3 […]
The slope from the plot of kobs against concentration of MN551 gives us the covalent efficiency parameter kinact/KI (Supp Fig. 9F)[30],[33].

[1] = MN551 67.7604 nM, Cycle 17 (80 min), n=1
[2] = MN551 67.7604 nM, Cycle 18 (85 min), n=1
[3] = MN551 67.7604 nM; Cycle 6 (25 min)
[4] = MN551 67.7604 nM; Cycle 7 (30 min)
[5] = MN551 67.7604 nM; Cycle 8 (35 min)
[6] = MN551 67.7604 nM; Cycle 9 (40 min)
[7] = MN551 67.7604 nM; Cycle 10 (45 min)
[8] = MN551 67.7604 nM; Cycle 11 (50 min)
[9] = MN551 67.7604 nM; Cycle 12 (55 min); n=1
[10] = MN551 67.7604 nM; Cycle 13 (60 min); n=1
[11] = MN551 67.7604 nM; Cycle 14 (65 min); n=1
[12] = MN551 67.7604 nM; Cycle 15 (70 min); n=1
[13] = MN551 67.7604 nM; Cycle 16 (75 min); n=1
[14] = MN551 94.8645 nM, Cycle 8 (35 min)
[15] = MN551 94.8645 nM, Cycle 9 (40 min)
[16] = MN551 94.8645 nM, Cycle 10 (45 min)
[17] = MN551 94.8645 nM, Cycle 11 (50 min)
[18] = MN551 94.8645 nM, Cycle 15 (70 min), n=1
[19] = MN551 94.8645 nM, Cycle 16 (75 min), n=1
[20] = MN551 94.8645 nM, Cycle 17 (80 min), n=1
[21] = MN551 94.8645 nM, Cycle 18 (85 min), n=1
[22] = MN551 94.8645 nM; Cycle 6 (25 min)
[23] = MN551 94.8645 nM; Cycle 7 (30 min)
[24] = MN551 94.8645 nM; Cycle 8 (35 min)
[25] = MN551 94.8645 nM; Cycle 9 (40 min)
[26] = MN551 94.8645 nM; Cycle 10 (45 min)
[27] = MN551 94.8645 nM; Cycle 11 (50 min)
[28] = MN551 94.8645 nM; Cycle 12 (55 min); n=1
[29] = MN551 94.8645 nM; Cycle 13 (60 min); n=1

## O=C(CCl)Nc1cccc(CNC(=O)[C@H](Cc2ccc(OP(=O)(O)O)cc2)NC(=O)Cc2ccc(F)cc2)c1 [MN551]
MN551 67.7604 nM, Cycle 16 (75 min), n=1
  Normalised anisotropy (0 nM MN551 = 1, free probe = 0): 1.011 and 0.9971 and 0.9751
[1]
  Anisotropy: 273.9 and 272.9 and 272.4
  Normalised anisotropy (0 nM MN551 = 1, free probe = 0): 1.011 and 0.9923 and 1.019
[2]
  Anisotropy: 273.3 and 273 and 268.8
  Normalised anisotropy (0 nM MN551 = 1, free probe = 0): 1.015 and 1.008 and 1.011
MN551 67.7604 nM; Cycle 3 (10 min)
  Fb, fraction bound: 1.012 and 1.015
MN551 67.7604 nM; Cycle 4 (15 min)
  Fb, fraction bound: 1.045 and 1.001 and 1.044
MN551 67.7604 nM; Cycle 5 (20 min)
  Fb, fraction bound: 1.021 and 1.01 and 1.035
[3]
  Anisotropy data 485,520,520: 255.5 and 268.5 and 268.1
  Fb: 1.001 and 1.023 and 1.097
  Fb, fraction bound: 1.014 and 1.003 and 1.019
[4]
  Anisotropy data 485,520,520: 254 and 269.1 and 265.5
  Fb: 1.003 and 1.031 and 1.1195
  Fb, fraction bound: 1.006 and 0.9878 and 1.026
[5]
  Anisotropy: 280.6 and 277.8 and 278.8
  Anisotropy data 485,520,520: 254.8 and 266.5 and 267.2
  Fb: 0.9713 and 1.02 and 1.131 and 1.039 and 0.9859 and 1.031
[6]
  Anisotropy: 279.4 and 279.7 and 277.3
  Anisotropy data 485,520,520: 251.7 and 265.7 and 262.8
  Fb: 0.9836 and 1.032 and 1.106 and 1.035 and 0.9991 and 1.012
[7]
  Anisotropy: 280.9 and 277.5 and 274.3
  Anisotropy data 485,520,520: 251.5 and 263.4 and 263.1
  Fb: 1 and 1.033 and 1.133 and 1.042 and 0.9889 and 0.9831
[8]
  Anisotropy: 280.7 and 279.2 and 275.8
  Fb: 1.049 and 1.022 and 1.0181
MN551 67.7604 nM; Cycle 11 (50 min); n=1
  Anisotropy: 249.8 and 261.8 and 263.5
[9]
  Anisotropy: 248.6 and 262.7 and 264
  Anisotropy based on Raw Data (485): 273 and 273.6 and 273.9
[10]
  Anisotropy: 247.9 and 260.8 and 262.2
  Anisotropy based on Raw Data (485): 273.9 and 272.8 and 272.7
[11]
  Anisotropy: 247.1 and 259.2 and 261.7
  Anisotropy based on Raw Data (485): 273.5 and 272.5 and 272.8
[12]
  Anisotropy: 246.9 and 261.9 and 262.5
  Anisotropy based on Raw Data (485): 271.6 and 270.3 and 270.9
[13]
  Anisotropy: 245.6 and 261.2 and 260.3
  Anisotropy based on Raw Data (485): 271.9 and 271.2 and 270.9
MN551 67.7604 nM; Cycle 19 (90 min); n=1
  Anisotropy data 485,520,520: 274 and 272.9 and 268.5
MN551 67.7604 nM; Cycle 20 (95 min); n=1
  Anisotropy data 485,520,520: 272.7 and 269.9 and 269.6
MN551 94.8645 nM, Cycle 7 (30 min)
  Fb: 0.9103 and 0.9157 and 0.873
[14]
  Anisotropy based on Raw Data (485): 275.2 and 275.4 and 274.8
  Fb: 0.8995 and 0.8731 and 0.8819
[15]
  Anisotropy based on Raw Data (485): 275.6 and 277.1 and 274.7
  Fb: 0.8857 and 0.8982 and 0.8762
[16]
  Anisotropy based on Raw Data (485): 274.4 and 274.2 and 271.6
  Fb: 0.9025 and 0.8842 and 0.8777
[17]
  Anisotropy based on Raw Data (485): 273 and 275.5 and 272.5
  Fb: 0.925 and 0.8825 and 0.8722
MN551 94.8645 nM, Cycle 13 (60 min), n=1
  Anisotropy: 276.5 and 273.8 and 270.9
MN551 94.8645 nM, Cycle 14 (65 min), n=1
  Anisotropy: 274.8 and 273.8 and 270.2
[18]
  Anisotropy: 273.5 and 273.9 and 267.6
  Normalised anisotropy (0 nM MN551 = 1, free probe = 0): 0.9934 and 0.9442
[19]
  Anisotropy: 272.4 and 271.7 and 268.1
  Normalised anisotropy (0 nM MN551 = 1, free probe = 0): 0.9707 and 0.9884 and 0.9484
[20]
  Anisotropy: 271.2 and 271.5 and 267.5
  Normalised anisotropy (0 nM MN551 = 1, free probe = 0): 0.9846 and 0.9787 and 0.9707
[21]
  Anisotropy: 271.6 and 271.8 and 267
  Normalised anisotropy (0 nM MN551 = 1, free probe = 0): 0.999 and 0.9962 and 0.993
MN551 94.8645 nM; Cycle 4 (15 min)
  Fb, fraction bound: 1.024 and 0.9774 and 0.9924
MN551 94.8645 nM; Cycle 5 (20 min)
  Fb, fraction bound: 1.011 and 0.9897 and 0.9981
[22]
  Fb: 0.9952 and 1.008 and 1.071
  Fb, fraction bound: 0.9991 and 0.9933 and 0.9706
[23]
  Anisotropy data 485,520,520: 273.3 and 268.2 and 263.5
  Fb: 0.9824 and 1.012 and 1.067
  Fb, fraction bound: 0.9706 and 0.9925 and 0.98
[24]
  Anisotropy: 281.8 and 278.2 and 273.8
  Anisotropy data 485,520,520: 272.9 and 263.9 and 265.9
  Fb: 0.9646 and 1.009 and 1.086 and 1.05 and 0.9896 and 0.9825
[25]
  Anisotropy: 275.8 and 276.6 and 273.4
  Anisotropy data 485,520,520: 271.2 and 265.1 and 264.1
  Fb: 0.9797 and 1.047 and 1.078 and 1 and 0.9698 and 0.9739
[26]
  Anisotropy: 278 and 276.1 and 270.9
  Anisotropy data 485,520,520: 269.5 and 261.1 and 262.4
  Fb: 0.9923 and 1.012 and 1.075 and 1.014 and 0.9759 and 0.9511
[27]
  Anisotropy: 277.4 and 274.4 and 270.1
  Fb: 1.017 and 0.9764 and 0.9638
MN551 94.8645 nM; Cycle 11 (50 min); n=1
  Anisotropy: 271.8 and 262.9 and 260.9
[28]
  Anisotropy: 269.6 and 262.3 and 258.8
  Anisotropy based on Raw Data (485): 271.6 and 273.7 and 270.4
[29]
  Anisotropy: 269.2 and 258.5 and 260.3
  Anisotropy based on Raw Data (485): 272.8 and 273.5 and 270.6
